Among the data in PubChem BioAssay AID493014 (National Center for Advancing Translational Sciences (NCATS), 2011) are AC50 values, retold here.

This experiment in a line: qHTS Assay to Find Inhibitors of Chronic Active B-Cell Receptor Signaling. Conditions: ABC-DLBCL IkBa-CBG/CBR reporter, luminescence ratio (green luciferase fused to IkBa over red control in TMD8 lymphoma cells), 4 h. The method, boiled down:
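TMD8 ABC-DLBCL cells carrying doxycycline-inducible green luciferase fused to IkappaBalpha plus unfused red luciferase were exposed to compounds (up to 46 uM) for 4 hrs at 37C. Activity came from the overlap-corrected green/red luminescence ratio.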
(In general: qHTS replaces the single test concentration by a dilution series.)

Where [1] appears, read: measured here: CBR red luminescence, cell number.
[2] abbreviates: measured here: IkBa-CBG green luminescence.

Where “and” joins values, the source holds several entries; their conditions need not be identical. Identical values can stand only once. The list shows a part of the results. Shown are side measurements of this screen, not its main read-out; they come without a call. Most of these compounds were active or inconclusive in the main read-out, so they are no random draw. The note in brackets gives the kind of curve behind each potency; many fits are weak.

As to `COc1ccc(-c2cc(-c3ccccc3)nc(SCC(=O)Nc3ncc(C)s3)c2C#N)cc1`, the half-maximal activity concentration (AC50) under setting [1] was 2.31 µM [rising, full curve, poor fit]. As for `Cc1ccc(Cn2nnc3c(=O)[nH]c(C4CCN(S(=O)(=O)/C=C/c5ccccc5)CC4)nc32)cc1`, the AC50 under setting [1] was 7.08 µM [falling, partial curve, poor fit]. Still for that read-out and setting: with `O=C(Nc1cccc(Cl)c1)Nc1cccc(C(=O)O)c1` the figure was 5.01 µM [falling, full curve]; with `CC(=O)NCCc1nc2cc(NC(=O)c3ccccc3C)ccc2n1C`, 8.91 µM [falling, partial curve]; with `CC(=O)Nc1ccc(C(=O)CSc2nc3ccc(C)cc3[nH]2)cc1`, 29.1 µM [rising, single point]. As for `O=C(CSC1=Nc2ccccc2C2=NC(CC(=O)NCc3ccco3)C(=O)N12)NCc1ccco1` (stereo not given), the concentration at half-maximal activity (AC50) under setting [1] is 29.1 µM [rising, single point]. Same read-out and setting: with `COc1cc(NC(=O)CN(C)Cc2ccc(OC(F)F)cc2)c(C)cc1[N+](=O)[O-]` the figure was 0.00731 µM [rising, full curve, poor fit]. As to `Cc1sc2nc(SCC(=O)N(C)c3ccccc3)n(C)c(=O)c2c1C`, the half-maximal activity concentration (AC50) under setting [1] was 3.55 µM [falling, partial curve, poor fit]. On the same count and under the same terms, the same measure for `COc1ccc(/C=C(\NC(=O)c2cccs2)C(=O)Nc2ccccc2C)cc1OC`: 29.1 µM [rising, single point]; for `Cc1nc(NC(=O)c2ccc(Br)o2)sc1C`: 1.03 µM [falling, full curve, poor fit]. For the compound `CC1=C(C(=O)Nc2ccc(CC(=O)NCc3ccc(OC(C)C)cc3)cc2)SCCO1`, the AC50 by setting is: under setting [1], 8.91 µM [rising, partial curve]; under setting [2], 1.58 µM [falling, full curve]. In the case of `COc1ccc2cc3c(N)nn(C(=O)Cc4c[nH]c5ccccc45)c3nc2c1`, the AC50 was 7.08 µM [falling, full curve] under setting [1] and 12.6 µM [rising, single point] under setting [2]. With `CCCc1nnc(N2C(=O)c3cccc4cccc(c34)C2=O)s1`, under setting [1], the concentration at half-maximal activity (AC50) is 20.6 µM [rising, single point].

Consider `CSc1nsc(NC(=O)Cc2ccccc2)n1`, for which, under setting [1], the AC50 is 8.2 µM [falling, partial curve]. Same read-out and setting: with `Cc1cccnc1NC(=O)/C=C/c1ccc2c(c1)OCO2` the figure was 1.84 µM [falling, full curve]; with `Cc1onc(-c2ccccc2)c1C(=O)N/N=C/c1cc2c(cc1Br)OCO2`, 29.1 µM [falling, single point]. The same measure, in the same setting: the same measure for `O=C(COC(=O)c1cc(Br)ccc1O)Nc1ccc2c(c1)OCO2`: 5.8 µM [falling, partial curve]. Still for that read-out and setting: the same measure for `Cc1ccc(Cl)cc1N1CCN(C(=O)CSc2nnc3n2C(C)(C)Cc2ccccc2-3)CC1`: 18.4 µM [falling, single point]; for `O=C(COC(=O)c1nc(Cl)ccc1Cl)c1ccc[nH]1`: 29.1 µM [rising, partial curve, poor fit]. `C[C@]12CCC(=O)C=C1CC[C@@H]1[C@@H]2[C@@H](O)C[C@@]2(C)[C@H]1CC[C@]2(O)C(=O)COC(=O)CCC(=O)O`: under setting [1], the concentration at half-maximal activity (AC50) is 326 nM [rising, full curve, poor fit] and 231 nM [rising, full curve, poor fit]. `O=C(COC(=O)c1cccc([N+](=O)[O-])c1)Nc1ccc(Cl)cn1`: the AC50 under setting [1] is 16.4 µM [falling, partial curve, poor fit]. Still for that read-out and setting: with `COc1ccc(Br)cc1/C=N/NC(=O)CN1CCN(Cc2ccccc2)CC1` the figure was 25.1 µM [rising, single point].

With `CCn1cc(C(=O)NCc2ccccn2)c(=O)c2cc(F)c(N3CCN(C)CC3)cc21`, the AC50 under setting [1] is 6.51 µM [falling, single point]. The same measure, in the same setting: the same measure for `Cc1cc(=O)n2[nH]c(N)c(N=Nc3ccccc3)c2n1`: 10.3 µM [falling, partial curve, poor fit]; for `CCOC(=O)c1cnn(-c2cc(C)c3ccccc3n2)c1N`: 1.26 µM [rising, full curve, poor fit]. With `CC(C(=O)N1CCN(C(=O)c2ccco2)CC1)N1C(=O)NC2(CCCCC2C)C1=O` (stereo not given), under setting [1], the AC50 is 29.1 µM [rising, single point]. The same measure, in the same setting: the same measure for `Nc1ccc(S(=O)(=O)Nc2nc(-c3ccccc3)cc(-c3ccccc3)n2)cc1`: 14.1 µM [rising, partial curve, poor fit]; for `CCn1c(SCC(=O)NCc2ccco2)nnc1-c1cccs1`: 0.731 µM [falling, partial curve, poor fit]; for `O=C(Nc1nnc(C2CC2)s1)c1ccncc1`: 35.5 µM [falling, single point]. On the same count and under the same terms, with `Cc1nn(C(=O)c2cc3sccc3[nH]2)c(C)c1C` the figure was 0.58 µM [rising, full curve, poor fit]; with `COC(=O)C1=C(C)N(Cc2ccccc2)C(=NCc2cc(OC)c(OC)c(OC)c2)N[C@H]1c1ccc(Br)cc1`, 18.4 µM [falling, partial curve]; with `COc1ccccc1NC(=O)c1ccc(-n2cccn2)nc1`, 25.1 µM [falling, single point]. As for `CCCC(=O)Nc1ccc(C(=O)Nc2ccc([N+](=O)[O-])cc2OC)cc1`, the AC50 under setting [1] was 6.31 µM [rising, partial curve, poor fit]. As to `Cc1ccc(-c2c[n+](Cc3ccc(Cl)cc3)c3n2CCC3)cc1`, the AC50 under setting [1] was 20 µM [falling, single point]. Same read-out and setting: with `O=C(Nc1nccs1)NC(C(F)(F)F)C(F)(F)F` the figure was 4.11 µM [rising, single point]; with `CCCn1nc(C(=O)OCC(=O)c2c(N)n(C)c(=O)n(C)c2=O)c2ccccc2c1=O`, 2.82 µM [falling, partial curve, poor fit]. Still for that read-out and setting: the same measure for `O=C(Nc1ccc2ccccc2c1)c1onc2c1CCCC2`: 5.01 µM [falling, partial curve]. Still for that read-out and setting: with `Cc1nn2c(NCCCN(C)C)c3c(nc2c1-c1ccccc1)CCCC3` the figure was 7.08 µM [falling, partial curve, poor fit]. With `O=C(CN1C(=O)c2cccnc2Oc2ccc(Cl)cc21)Nc1ccc(F)cc1`, the half-maximal activity concentration (AC50) under setting [1] is 10 µM [falling, partial curve]. On the same count and under the same terms, the same measure for `CN(C)c1ccc(NC(=O)c2cccc(N3C(=O)C4C5C=CC(C5)C4C3=O)c2)cc1` (stereo not given): 2.82 µM [falling, full curve]; for `COCCCn1c(SCC(=O)NC(C)(C)C)nnc1-c1cccs1`: 15.8 µM [rising, single point]; for `CCN1C(=O)S/C(=C/c2ccc(Sc3nc4ccccc4[nH]3)o2)C1=O`: 23.1 µM [falling, single point]. Same read-out and setting: with `Cc1cccc(Nc2ncnc3nc[nH]c23)c1C` the figure was 9.2 µM [falling, partial curve].

Take `O=C(Nc1sc2c(c1C(=O)O)CCCC2)c1ccccc1Cl`: under setting [1], the AC50 was 20 µM [falling, partial curve]. The same measure, in the same setting: with `O=C(NCc1ccc2c(c1)OCO2)c1ccc(S(=O)(=O)N2CCCCC2)cc1` the figure was 29.1 µM [rising, single point]. Same read-out and setting: the same measure for `C/C(N)=C(/C#N)C(=O)CSc1nnc(Nc2ccccc2)s1`: 35.5 µM [falling, partial curve, poor fit]; for `O=C(NC1CCN(C(=O)N2c3ccccc3Sc3ccccc32)CC1)c1ccccc1F`: 7.08 µM [falling, partial curve]. For `O=C(CSc1nc(O)cc(=O)[nH]1)N1c2ccccc2Sc2ccccc21`, the AC50 under setting [1] was 17.8 µM [rising, partial curve, poor fit].

On to `CCC1=NN(C(=O)c2ccccc2O)C(O)(c2ccccc2)C1` (stereo not given), for which, under setting [1], the AC50 is 2.82 µM [falling, full curve].

On to `CN(C)CCCN(C(=O)CCSc1ccccc1)c1nc2cc3c(cc2s1)OCO3`, for which the AC50 under setting [1] was 12.6 µM [falling, partial curve, poor fit]. Same read-out and setting: with `COc1cccc(C(=O)NC(=S)Nc2ccc3c4c(cccc24)CC3)c1` the figure was 3.16 µM [falling, partial curve, poor fit]; with `COc1ccc2c(=O)c(-c3cnn(-c4ccccc4)c3)c(C)oc2c1`, 4.47 µM [rising, full curve]. Turning to `COc1ccc(NC(=O)c2nc3nccc(C)n3n2)cc1S(=O)(=O)N1CCOCC1`, the AC50 under setting [2] is 16.4 µM [falling, partial curve, poor fit]. On to `Fc1ccc(CNCCC(Cc2ccccc2)c2ccco2)cc1` (stereo not given), for which the AC50 under setting [1] was 15.8 µM [falling, single point]. As for `COc1ccccc1/C=C/C(=O)N1CCOCC1`, the AC50 under setting [1] is 0.517 µM [falling, partial curve, poor fit]. The same measure, in the same setting: with `Cc1nn(-c2cccc(C(F)(F)F)c2)c(=O)c2noc(C)c12` the figure was 2.51 µM [rising, partial curve, poor fit]. Same read-out and setting: with `Cc1ccc(/C(N)=N/OC(=O)CCCc2ccccc2)cc1` the figure was 5.62 µM [rising, partial curve, poor fit]. The same measure, in the same setting: with `Cc1cccc(-n2ncc3c(NCCN4CCOCC4)ncnc32)c1` the figure was 1.41 µM [falling, full curve]; with `Cc1c(C(=O)NC(=S)NCC(C)C)oc2ccccc12`, 14.6 µM [rising, partial curve].

`Cc1ccc2nc(SCC(=O)c3c[nH]c4ccccc34)[nH]c2c1`: the AC50 under setting [1] was 14.1 µM [falling, partial curve, poor fit].

For `O=C(Cn1c(=O)oc2ccccc21)N1CCN(c2ccc(N3CCOCC3)nn2)CC1`, the AC50 under setting [1] is 29.1 µM [rising, single point].

On to `Cc1ccc(C(=O)NC(=S)NNC(=O)c2ccccc2O)cc1`, for which the AC50 under setting [1] was 10 µM [falling, partial curve, poor fit]. Consider `COc1ccc(NC(=O)Cn2ccc3c(OC)cccc3c2=O)cc1`, for which the AC50 under setting [1] was 3.98 µM [rising, full curve, poor fit].

What is called AC50 is the concentration giving half of the maximal activity seen.
